Test results: paper PMC8206213, “An L-2-hydroxyglutarate biosensor based on specific transcriptional regulator LhgR” (Nature Communications, 2021)
Some values come without a unit; they compare only within their column.

Assay: Emission and excitation spectra of purified LHGFR with or without 100 μM L-2-HG
Assay type: binding
Settings: for Fluorescence intensity, emission spectrum: Suppl. Fig. 8b

In the case of `O=C(O)CC[C@H](O)C(=O)O` [L-2-HG, L-2-Hydroxyglutarate], the fluorescence intensity (Suppl. Fig. 4b excitation spectrum, 464 nm) is reported as 1.24E+06, the fluorescence intensity (Suppl. Fig. 4b excitation spectrum, 466 nm) is reported as 1.28E+06 and the fluorescence intensity (Suppl. Fig. 4b excitation spectrum, 468 nm) is reported as 1.33E+06. The fluorescence intensity (Suppl. Fig. 4b excitation spectrum, 470 nm) was 1.38E+06, the fluorescence intensity (Suppl. Fig. 4b excitation spectrum, 472 nm) was 1.42E+06 and the fluorescence intensity (Suppl. Fig. 4b excitation spectrum, 474 nm) was 1.48E+06. For the same molecule, the fluorescence intensity (Suppl. Fig. 4b excitation spectrum, 476 nm) was 1.55E+06, the fluorescence intensity (Suppl. Fig. 4b excitation spectrum, 478 nm) was 1.64E+06 and the fluorescence intensity (Suppl. Fig. 4b excitation spectrum, 480 nm) was 1.75E+06. The fluorescence intensity (Suppl. Fig. 4b excitation spectrum, 482 nm) was 1.85E+06, the fluorescence intensity (Suppl. Fig. 4b excitation spectrum, 484 nm) was 1.81E+06 and the fluorescence intensity (Suppl. Fig. 4b excitation spectrum, 486 nm) was 1.80E+06. It also gave a fluorescence intensity (Suppl. Fig. 4b excitation spectrum, 488 nm) of 1.77E+06, a fluorescence intensity (Suppl. Fig. 4b excitation spectrum, 490 nm) of 1.76E+06 and a fluorescence intensity (Suppl. Fig. 4b excitation spectrum, 492 nm) of 1.76E+06. For the same molecule, the fluorescence intensity (Suppl. Fig. 4b excitation spectrum, 494 nm) was 1.76E+06, the fluorescence intensity (Suppl. Fig. 4b excitation spectrum, 496 nm) was 1.78E+06 and the fluorescence intensity (Suppl. Fig. 4b excitation spectrum, 498 nm) was 1.82E+06. For the same molecule, the fluorescence intensity (Suppl. Fig. 4b excitation spectrum, 500 nm) was 1.91E+06, the fluorescence intensity (Suppl. Fig. 4b excitation spectrum, 502 nm) was 2.07E+06 and the fluorescence intensity (Suppl. Fig. 4b excitation spectrum, 504 nm) was 2.54E+06. The fluorescence intensity (Suppl. Fig. 4b excitation spectrum, 506 nm) was 3.07E+06, the fluorescence intensity (Suppl. Fig. 4b excitation spectrum, 508 nm) was 3.50E+06 and the fluorescence intensity (Suppl. Fig. 4b excitation spectrum, 510 nm) was 3.73E+06. For the same molecule, the fluorescence intensity (Suppl. Fig. 4b excitation spectrum, 512 nm) was 3.95E+06, the fluorescence intensity (Suppl. Fig. 4b excitation spectrum, 514 nm) was 4.11E+06 and the fluorescence intensity (Suppl. Fig. 4b excitation spectrum, 516 nm) was 4.18E+06. For the same molecule, the fluorescence intensity (Suppl. Fig. 4b excitation spectrum, 518 nm) was 4.17E+06, the fluorescence intensity (Suppl. Fig. 4b excitation spectrum, 520 nm) was 4.10E+06 and the fluorescence intensity (Suppl. Fig. 4b excitation spectrum, 522 nm) was 3.84E+06. The fluorescence intensity (Suppl. Fig. 4b excitation spectrum, 524 nm) was 3.31E+06, the fluorescence intensity (Suppl. Fig. 4b excitation spectrum, 526 nm) was 2.40E+06 and the fluorescence intensity (Suppl. Fig. 4b excitation spectrum, 528 nm) was 1.42E+06. It also gave a fluorescence intensity (Suppl. Fig. 4b excitation spectrum, 530 nm) of 938111, a fluorescence intensity (Suppl. Fig. 4b excitation spectrum, 532 nm) of 663965 and a fluorescence intensity (Suppl. Fig. 4b excitation spectrum, 534 nm) of 490736. The fluorescence intensity (Suppl. Fig. 8a emission spectrum, 450 nm) was 5095, the fluorescence intensity (Suppl. Fig. 8a emission spectrum, 452 nm) was 6551 and the fluorescence intensity (Suppl. Fig. 8a emission spectrum, 454 nm) was 7935. It also gave a fluorescence intensity (Suppl. Fig. 8a emission spectrum, 456 nm) of 10250, a fluorescence intensity (Suppl. Fig. 8a emission spectrum, 458 nm) of 13637 and a fluorescence intensity (Suppl. Fig. 8a emission spectrum, 460 nm) of 19717. It also gave a fluorescence intensity (Suppl. Fig. 8a emission spectrum, 462 nm) of 27208, a fluorescence intensity (Suppl. Fig. 8a emission spectrum, 464 nm) of 43597 and a fluorescence intensity (Suppl. Fig. 8a emission spectrum, 466 nm) of 65029. For the same molecule, the fluorescence intensity (Suppl. Fig. 8a emission spectrum, 468 nm) was 104204, the fluorescence intensity (Suppl. Fig. 8a emission spectrum, 470 nm) was 189423 and the fluorescence intensity (Suppl. Fig. 8a emission spectrum, 472 nm) was 268857. For the same molecule, the fluorescence intensity (Suppl. Fig. 8a emission spectrum, 474 nm) was 382782, the fluorescence intensity (Suppl. Fig. 8a emission spectrum, 476 nm) was 549226 and the fluorescence intensity (Suppl. Fig. 8a emission spectrum, 478 nm) was 669159. The fluorescence intensity (Suppl. Fig. 8a emission spectrum, 480 nm) was 834094, the fluorescence intensity (Suppl. Fig. 8a emission spectrum, 482 nm) was 989680 and the fluorescence intensity (Suppl. Fig. 8a emission spectrum, 484 nm) was 1.12E+06. For the same molecule, the fluorescence intensity (Suppl. Fig. 8a emission spectrum, 486 nm) was 1.30E+06, the fluorescence intensity (Suppl. Fig. 8a emission spectrum, 488 nm) was 1.45E+06 and the fluorescence intensity (Suppl. Fig. 8a emission spectrum, 490 nm) was 1.59E+06. For the same molecule, the fluorescence intensity (Suppl. Fig. 8a emission spectrum, 492 nm) was 1.72E+06, the fluorescence intensity (Suppl. Fig. 8a emission spectrum, 494 nm) was 1.78E+06 and the fluorescence intensity (Suppl. Fig. 8a emission spectrum, 496 nm) was 1.77E+06. It also gave a fluorescence intensity (Suppl. Fig. 8a emission spectrum, 498 nm) of 1.74E+06, a fluorescence intensity (Suppl. Fig. 8a emission spectrum, 500 nm) of 1.69E+06 and a fluorescence intensity (Suppl. Fig. 8a emission spectrum, 502 nm) of 1.63E+06. For the same molecule, the fluorescence intensity (Suppl. Fig. 8a emission spectrum, 504 nm) was 1.60E+06, the fluorescence intensity (Suppl. Fig. 8a emission spectrum, 506 nm) was 1.55E+06 and the fluorescence intensity (Suppl. Fig. 8a emission spectrum, 508 nm) was 1.52E+06. The fluorescence intensity (Suppl. Fig. 8a emission spectrum, 510 nm) was 1.53E+06, the fluorescence intensity (Suppl. Fig. 8a emission spectrum, 512 nm) was 1.57E+06 and the fluorescence intensity (Suppl. Fig. 8a emission spectrum, 514 nm) was 1.67E+06. The fluorescence intensity (Suppl. Fig. 8a emission spectrum, 516 nm) was 1.90E+06, the fluorescence intensity (Suppl. Fig. 8a emission spectrum, 518 nm) was 2.17E+06 and the fluorescence intensity (Suppl. Fig. 8a emission spectrum, 520 nm) was 2.46E+06. It also gave a fluorescence intensity (Suppl. Fig. 8a emission spectrum, 522 nm) of 2.67E+06, a fluorescence intensity (Suppl. Fig. 8a emission spectrum, 524 nm) of 2.84E+06 and a fluorescence intensity (Suppl. Fig. 8a emission spectrum, 526 nm) of 2.92E+06. For the same molecule, the fluorescence intensity (Suppl. Fig. 8a emission spectrum, 528 nm) was 2.95E+06, the fluorescence intensity (Suppl. Fig. 8a emission spectrum, 530 nm) was 2.93E+06 and the fluorescence intensity (Suppl. Fig. 8a emission spectrum, 532 nm) was 2.84E+06. It also gave a fluorescence intensity (Suppl. Fig. 8a emission spectrum, 534 nm) of 2.74E+06, a fluorescence intensity (Suppl. Fig. 8a emission spectrum, 536 nm) of 2.59E+06 and a fluorescence intensity (Suppl. Fig. 8a emission spectrum, 538 nm) of 2.35E+06. The fluorescence intensity (Suppl. Fig. 8a emission spectrum, 540 nm) was 2.12E+06, the fluorescence intensity (Suppl. Fig. 8a emission spectrum, 542 nm) was 1.85E+06 and the fluorescence intensity (Suppl. Fig. 8a emission spectrum, 544 nm) was 1.68E+06. For the same molecule, the fluorescence intensity (Suppl. Fig. 8a emission spectrum, 546 nm) was 1.52E+06, the fluorescence intensity (Suppl. Fig. 8a emission spectrum, 548 nm) was 1.39E+06 and the fluorescence intensity (Suppl. Fig. 8a emission spectrum, 550 nm) was 1.29E+06. It also gave a fluorescence intensity (Suppl. Fig. 8a emission spectrum, 552 nm) of 1.20E+06, a fluorescence intensity (Suppl. Fig. 8a emission spectrum, 554 nm) of 1.12E+06 and a fluorescence intensity (Suppl. Fig. 8a emission spectrum, 556 nm) of 1.06E+06. For the same molecule, the fluorescence intensity (Suppl. Fig. 8a emission spectrum, 558 nm) was 990780, the fluorescence intensity (Suppl. Fig. 8a emission spectrum, 560 nm) was 928516 and the fluorescence intensity (Suppl. Fig. 8a emission spectrum, 562 nm) was 867560. The fluorescence intensity (Suppl. Fig. 8a emission spectrum, 564 nm) was 804813, the fluorescence intensity (Suppl. Fig. 8a emission spectrum, 566 nm) was 746699 and the fluorescence intensity (Suppl. Fig. 8a emission spectrum, 568 nm) was 687421. For the same molecule, the fluorescence intensity (Suppl. Fig. 8a emission spectrum, 570 nm) was 638245, the fluorescence intensity (Suppl. Fig. 8a emission spectrum, 572 nm) was 599635 and the fluorescence intensity (Suppl. Fig. 8a emission spectrum, 574 nm) was 563432. For the same molecule, the fluorescence intensity (Suppl. Fig. 8a emission spectrum, 576 nm) was 515238, the fluorescence intensity (Suppl. Fig. 8a emission spectrum, 578 nm) was 487979 and the fluorescence intensity (Suppl. Fig. 8a emission spectrum, 580 nm) was 445688. The “Fluorescence intensity, emission spectrum” value (emission 450 nm) was 4866, the “Fluorescence intensity, emission spectrum” value (emission 452 nm) was 6706 and the “Fluorescence intensity, emission spectrum” value (emission 454 nm) was 7958. The “Fluorescence intensity, emission spectrum” value (emission 456 nm) was 10880, the “Fluorescence intensity, emission spectrum” value (emission 458 nm) was 15229 and the “Fluorescence intensity, emission spectrum” value (emission 460 nm) was 22038.
